# Measured values published in PubChem BioAssay AID493014 (National Center for Advancing Translational Sciences (NCATS), 2011).
# Some of the results follow. The main result of the screen is listed elsewhere. These columns were measured beside it and carry no call. The list favours compounds with an active or inconclusive main result. Words in brackets tell the shape of the fitted curve; partial curves, single points and poor fits give uncertain potencies.
# Experiment: qHTS Assay to Find Inhibitors of Chronic Active B-Cell Receptor Signaling
# Details: ABC-DLBCL IkBa-CBG/CBR reporter, luminescence ratio (green luciferase fused to IkBa over red control in TMD8 lymphoma cells), 4 h
# Method in brief: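 TMD8 human ABC-DLBCL cells with doxycycline-inducible IκBα–green luciferase fusion and unfused red luciferase, in 0.5% FBS medium; compounds up to 46 uM, 4 h at 37C. Green/red luminescence ratio, filter-overlap corrected, fitted to concentration-response curves.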
# [1] = measured here: CBR red luminescence, cell number
# [2] = measured here: IkBa-CBG green luminescence
smiles,measurement,setting,value
Cc1ccc(NC(=O)[C@@H](CC(C)C)NC(=O)[C@@H]2Cc3ccccc3CN2)cc1,AC50,[1],"0.355 µM [rising, full curve, poor fit]"
COc1cc(NC(=O)c2ccco2)c(OC)cc1NC(=O)CSc1ncc(-c2ccc(F)cc2)[nH]1,AC50,[1],"5.62 µM [falling, single point]"
CC(=O)N1CCN(c2ccc(NC(=O)c3ccc4c(c3)OCO4)cc2)CC1,AC50,[1],"7.08 µM [falling, partial curve]"
N#C/C(=C\c1ccc(Sc2nc3ccccc3[nH]2)o1)c1ccccc1,AC50,[1],"20.6 µM [falling, single point]"
Cc1ccc(NC(=O)COC(=O)C2(CC(=O)NC(C)(C)C)CCCC2)cc1C,AC50,[1],"6.51 µM [rising, single point]"
COC(=O)c1cccc(-n2c(C)cc(C=O)c2C)c1C,AC50,[1],"29.1 µM [falling, single point]"
COc1ccc(CNC(=O)COC(=O)c2cc(S(=O)(=O)N3CCOCC3)ccc2O)cc1OC,AC50,[1],"29.1 µM [rising, single point]"
COc1cc(CNCc2cccs2)cc(Br)c1OC,AC50,[1],"25.1 µM [rising, single point]"
Cc1ccc(S(=O)(=O)/C(C#N)=C/c2c(N3CCOCC3)nc3c(C)cccn3c2=O)cc1,AC50,[1],"3.98 µM [falling, full curve, poor fit]"
O=C(CSc1ncn(-c2ccccc2)n1)Nc1nc2c(s1)CCCC2,AC50,[1],"0.461 µM [rising, full curve, poor fit]"
Cc1ccc(-c2sc(C(=O)NN)c(C)c2C#N)cc1,AC50,[1],"12.6 µM [falling, single point]"
FC(F)(F)c1cc(-c2ccccc2)nc2ncnn12,AC50,[1],"0.13 µM [rising, full curve, poor fit]"
CC1S/C(=N/N=C2CCC(C(C)(C)C)CC2)NC1=O (stereo not drawn),AC50,[1],"29.1 µM [rising, single point]"
O=C(c1cc(-c2ccc(Cl)c(Cl)c2)on1)N1CCN(c2ccccc2)CC1,AC50,[1],"2.82 µM [falling, full curve]"
CCCOc1ccc(OC(=O)c2c(-c3ccccc3Cl)noc2C)cc1,AC50,[1],"35.5 µM [rising, single point]"
CC1(C)Cc2c(C#N)c(SCCC#N)nc(N3CCOCC3)c2CS1,AC50,[1],"0.0731 µM [rising, full curve, poor fit]"
CCOC(=O)c1sc(=S)n(-c2ccc(Cl)cc2)c1C,AC50,[1],"29.1 µM [rising, single point]"
COc1cccc(OC)c1C(=O)Nc1cccc(S(=O)(=O)Nc2ccccc2Cl)c1,AC50,[1],"29.1 µM [falling, single point]"
O=C(Nc1ccc(OC(F)(F)F)cc1)c1cnc2n(c1=O)CCS2,AC50,[1],"0.82 µM [rising, full curve, poor fit]"
CCCC(=O)Nc1ccccc1NC(=O)CN(C)S(=O)(=O)c1ccccc1,AC50,[1],"0.651 µM [falling, partial curve, poor fit]"
Cn1nnnc1SCc1ccc([N+](=O)[O-])cc1,AC50,[1],"5.17 µM [rising, full curve, poor fit]"
O=C(Nc1ccc2oc(-c3ccncc3)nc2c1)c1ccccc1F,AC50,[1],"22.4 µM [falling, single point]"
O=C(NCc1ccco1)C1CC(c2ccc(Cl)cc2)=NO1 (stereo not drawn),AC50,[1],"5.01 µM [falling, partial curve, poor fit]"
CCN1C(=O)c2cccc3c(NC(=O)C4CCCCC4)ccc1c23,AC50,[1],"0.562 µM [rising, full curve, poor fit]"
Cc1cc(Nc2cc(Cl)cc(Cl)c2)nc(N)n1,AC50,[1],"14.1 µM [rising, partial curve, poor fit]"
same,AC50,[2],"12.6 µM [falling, partial curve, poor fit]"
COC(=O)[C@@H]1CCCN1C(=O)c1cc(COc2cccc3cccnc23)on1,AC50,[1],"2.82 µM [falling, full curve]"
Cc1occc1C(=O)/C(C#N)=C/c1ccc(O)c(Br)c1,AC50,[1],"0.794 µM [falling, full curve, poor fit]"
COc1cccc(-c2nnc(SCc3nc4ccccc4s3)n2C)c1,AC50,[1],"14.6 µM [rising, single point]"
CC(Sc1n[nH]c(N)n1)c1nc2scc(-c3cccs3)c2c(=O)[nH]1 (stereo not drawn),AC50,[1],"18.4 µM [rising, partial curve, poor fit]"
O=C(CCc1nc(-c2ccccc2)no1)NCc1ccco1,AC50,[1],"0.631 µM [rising, full curve, poor fit]"
COc1ccccc1C(=O)NC(=S)Nc1cccnc1Cl,AC50,[1],"10 µM [falling, partial curve, poor fit]"
CC(C)NC(=O)N(C)C[C@H]1Oc2ccc(NC(=O)C3CCCCC3)cc2C(=O)N([C@H](C)CO)C[C@@H]1C,AC50,[1],"1.84 µM [rising, full curve]"
Cc1cccc(NC(=O)C2CCCN2S(=O)(=O)c2cccc3cccnc23)c1 (stereo not drawn),AC50,[1],"1.46 µM [rising, partial curve, poor fit]"
Cc1ccc(OCC(=O)Nc2cc(S(=O)(=O)N3CCCCC3)ccc2N2CCN(C)CC2)c(C)c1,AC50,[1],"1.84 µM [falling, partial curve, poor fit]"
COC(=O)c1[nH]c(C)c(/C(O)=C2\C(=O)C(=O)N(CCN3CCOCC3)C2c2ccccc2OC)c1C (stereo not drawn),AC50,[1],"11.2 µM [rising, single point]"
S=C(NCCC1=CCCCC1)Nc1ccc(Cl)cc1,AC50,[1],"7.31 µM [rising, partial curve]"
Cc1ccc(NC(=S)NNC(C)(C)C)cc1,AC50,[1],"7.08 µM [falling, full curve]"
same,AC50,[2],"5.62 µM [falling, full curve]"
CCCC#Cc1ccc2c(c1)COc1c3ccccc3nn1-2,AC50,[1],"0.461 µM [rising, full curve, poor fit]"
CCc1ccc(-c2cc(C)no2)cc1S(=O)(=O)NCc1ccccc1OC,AC50,[1],"35.5 µM [falling, single point]"
Cc1ccc(C)c(NC(=S)c2ccccn2)c1,AC50,[1],"7.94 µM [rising, partial curve, poor fit]"
same,AC50,[2],"5.62 µM [falling, single point]"
O=[N+]([O-])c1cccnc1S(=O)(=O)c1ccccc1,AC50,[1],"17.8 µM [falling, partial curve, poor fit]"
Cc1nc(NC2=NCN(Cc3ccco3)CN2)nc2ccccc12,AC50,[1],"3.55 µM [falling, partial curve, poor fit]"
Cc1cc(C)nc(SCc2csc(N)n2)n1,AC50,[1],"7.08 µM [falling, partial curve, poor fit]"
Cc1ccc(CCNC(=O)C2CCC(=O)N2Cc2ccc(F)cc2)cc1 (stereo not drawn),AC50,[1],"5.62 µM [rising, single point]"
Cc1ccc2cc(S(=O)(=O)NCCCN3CCOCC3)ccc2c1,AC50,[1],"35.5 µM [rising, single point]"
Cc1cccc2sc(N(CCCN(C)C)C(=O)CN3C(=O)c4ccccc4C3=O)nc12,AC50,[1],"35.5 µM [falling, single point]"
CNc1oc(-c2ccc(F)cc2)nc1S(=O)(=O)c1ccccc1,AC50,[1],"1.58 µM [falling, full curve, poor fit]"
Cc1cc(NC(=O)C2CCN(C(=O)c3ccco3)CC2)ccc1Br,AC50,[1],"1.3 µM [rising, full curve]"
O=S(=O)(Nc1ncccc1O)c1ccc(Cl)cc1,AC50,[1],"3.26 µM [rising, partial curve, poor fit]"
COc1ccccc1N=c1oc2c(OC)cccc2cc1C(=O)NCc1ccco1,AC50,[1],"3.55 µM [falling, full curve]"
CCOc1ccccc1C(=S)NC1CCCCC1,AC50,[1],"6.31 µM [rising, partial curve]"
Cc1cc(CSc2ccccc2)ccc1NC(=O)c1cccc([N+](=O)[O-])c1,AC50,[1],"3.98 µM [rising, single point]"
O=C(N/N=C/c1sc2ccccc2c1O)c1cccc2ccccc12,AC50,[1],"23.1 µM [falling, single point]"
COc1ccc(OC)c(C(O)c2coc3ccc(O)c(CN4CCOCC4)c23)c1 (stereo not drawn),AC50,[1],"17.8 µM [falling, single point]"
O=C(O)C/C=C(\NC(=O)OCc1ccccc1)C(=O)OCc1ccccc1,AC50,[1],"3.55 µM [rising, single point]"
COc1ccccc1/C=N/NC(=O)c1nnn(-c2nonc2N)c1CSC1=NCCS1,AC50,[1],"7.31 µM [falling, partial curve]"
Cc1nc(C)c(C(=O)O)s1,AC50,[1],"35.5 µM [falling, single point]"
COc1ccccc1C(=O)COC(=O)COc1ccc(C#N)cc1,AC50,[1],"1.64 µM [rising, partial curve, poor fit]"
O=C1CN2C(=Nc3ccc(Cl)cc3C2c2ccccc2)CN1 (stereo not drawn),AC50,[1],"29.1 µM [falling, single point]"
Cc1ccc(C)c(NC(=O)C(OC(=O)c2cc[n+]([O-])cc2)c2ccccc2)c1 (stereo not drawn),AC50,[1],"6.51 µM [falling, single point]"
COC(=O)CSC(=S)N1C(C)CCCC1C (stereo not drawn),AC50,[1],"10 µM [rising, partial curve, poor fit]"
COc1cc(/C=N/Nc2ccc(Cl)c(C(=O)O)c2)ccc1OC(=O)c1ccccc1F,AC50,[1],"7.94 µM [falling, partial curve]"
CCOc1ccc(/C=N/NC(=O)c2[nH]ncc2Br)c(O)c1,AC50,[1],"11.2 µM [falling, partial curve]"
COc1ccccc1CNc1nc2nc(C)cc(=O)n2[nH]1,AC50,[1],"11.6 µM [falling, partial curve, poor fit]"
Cc1ccc(CNC(=O)COc2ccc(S(=O)(=O)NC(C)C)cc2)cc1,AC50,[1],"29.1 µM [rising, single point]"

# Random excerpt: three entries already listed.
smiles,measurement,setting,value
Cc1ccc(-c2sc(C(=O)NN)c(C)c2C#N)cc1,AC50,[1],"12.6 µM [falling, single point]"
CCCC(=O)Nc1ccccc1NC(=O)CN(C)S(=O)(=O)c1ccccc1,AC50,[1],"0.651 µM [falling, partial curve, poor fit]"
FC(F)(F)c1cc(-c2ccccc2)nc2ncnn12,AC50,[1],"0.13 µM [rising, full curve, poor fit]"
